The list shows only some results of the screen, not a fair sample: it gathers tests that were run many times, whatever their T/C, doses with no T/C, and many T/C values between a quarter and a half above the control. Other doses and runs of a compound stand elsewhere. T/C is the treated group as % of the vehicle group. Some doses have a count of surviving animals in place of a T/C: the source files T/C as zero there, which appears to mark a toxic dose or a test without result, not a measured value. Some survivor counts are full or nearly so, which does not show that the dose was tolerated: survival well below the control is almost never listed, so the zero probably covers shortened survival too. Counts of survivors are from the toxicity check (mostly the fifth day) where no day follows; animals may have died later. Schedule codes are those of the source, taken here to give the interval after Q, in days (D) or hours (H), and the number of doses after X. Some entries hold several experiments; the values are given in rising order. For survival time, the PubChem record calls one and a half times the control and up active, and a quarter to a half above the control has no call in these data; cut-offs in other NCI protocols can differ. Some T/C values carry the count of animals alive at the toxicity check (mostly the fifth day); where none is given, no animal had died by that day. Brackets with × say how often a value occurs here.
Test system: CD2F1 mice, L1210 leukemia ip, survival T/C
Assay: NCI In Vivo Anticancer Drug Screen. Data for tumor model L1210 Leukemia (intraperitoneal) in CD2F1 (CDF1) mice
Conditions: higher T/C = longer survival
Outline: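 Activity against a transplanted murine tumor was judged by comparing the compound group with a vehicle group. The outcome in the treated animals was divided by that in the controls.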

[1] = T/C endpoint: median survival time, dose: 25.0 mg/kg/injection, schedule: Q01DX009 (ip), vehicle: saline with Tween-80
[2] = T/C endpoint: mean survival time, dose: 400.0 mg/kg/injection, schedule: Q04DX002 (ip), vehicle: saline

Compound: CCOC(=O)/N=[N+](\[O-])c1ccccc1
- survivor count [1]: 0 of 6
- survivor count (T/C endpoint: median survival time, dose: 50.0 mg/kg/injection, schedule: Q01DX009 (ip), vehicle: saline with Tween-80): 0 of 6

Compound: OC(CF)CF
- survivor count (T/C endpoint: mean survival time, dose: 50.0 mg/kg/injection, schedule: Q01DX009 (ip), vehicle: saline): 3 of 6
- survivor count (T/C endpoint: mean survival time, dose: 100.0 mg/kg/injection, schedule: Q01DX009 (ip), vehicle: saline): 0 of 6

Compound: c1ccc([I+]c2ccccc2)cc1
- survivor count (T/C endpoint: mean survival time, dose: 5.0 mg/kg/injection, schedule: Q01DX009 (ip), vehicle: saline sonified): 3 of 6
- survivor count (T/C endpoint: mean survival time, dose: 10.0 mg/kg/injection, schedule: Q01DX009 (ip), vehicle: saline sonified): 2 of 6 and 4 of 6
- survivor count (T/C endpoint: mean survival time, dose: 20.0 mg/kg/injection, schedule: Q01DX009 (ip), vehicle: saline sonified): 3 of 6

Compound: CN=NNc1ccc(C(=O)NC(C)C)cc1
- T/C (T/C endpoint: mean survival time, dose: 100.0 mg/kg/injection, schedule: Q01DX009 (ip), vehicle: DMSO): 149 % of control
- T/C (T/C endpoint: mean survival time, dose: 100.0 mg/kg/injection, schedule: Q01DX009 (ip), vehicle: other): 130 % of control
- T/C (T/C endpoint: mean survival time, dose: 200.0 mg/kg/injection, schedule: Q01DX009 (ip), vehicle: other): 133 % of control [5 of 6 alive] (2×)
- survivor count (T/C endpoint: mean survival time, dose: 400.0 mg/kg/injection, schedule: Q01DX009 (ip), vehicle: DMSO): 2 of 6
- survivor count (T/C endpoint: mean survival time, dose: 400.0 mg/kg/injection, schedule: Q01DX009 (ip), vehicle: other): 1 of 6 and 2 of 6

Compound: CC1OC(Sc2ncnc3nc[nH]c23)C(O)C(O)C1O (stereo not drawn)
- T/C (T/C endpoint: median survival time, dose: 100.0 mg/kg/injection, schedule: Q01DX005 (ip), vehicle: saline with Tween-80): 141 % of control

Compound: ClC1C2c3ccccc3C(C1Cl)[n+]1ccccc12 (stereo not drawn)
- survivor count (T/C endpoint: mean survival time, dose: 50.0 mg/kg/injection, schedule: Q04DX003 (ip), vehicle: Klucel (hydroxypropylcellulose) (HPC)): 6 of 6

Compound: [Co].[N-]=C=S.[N-]=C=S.[N-]=C=S.[N-]=C=S
- survivor count (T/C endpoint: mean survival time, dose: 200.0 mg/kg/injection, schedule: Q04DX002 (ip), vehicle: saline): 1 of 3
- survivor count [2]: 0 of 3

Compound: N#[N+]c1c(C(=O)O)[nH]c(=O)[nH]c1=O
- survivor count (T/C endpoint: mean survival time, dose: 50.0 mg/kg/injection, schedule: Q04DX003 (ip), vehicle: saline with Tween-80): 3 of 6

Compound: CC1(C)N=C(N)N=C(N)N1c1ccc(CCCCc2ccc(Cl)cc2Cl)cc1
- survivor count (T/C endpoint: mean survival time, dose: 25.0 mg/kg/injection, schedule: Q01DX009 (ip), vehicle: saline with Tween-80): 4 of 6

Compound: CN=C(N)N/N=C(\C)c1ccc2oc3ccc(/C(C)=N/NC(N)=NC)cc3c2c1
- T/C (T/C endpoint: median survival time, dose: 18.8 mg/kg/injection, schedule: Q01DX009 (ip), vehicle: saline with Tween-80): 125 % of control
- T/C [1]: 134 % of control
- T/C (T/C endpoint: median survival time, dose: 37.5 mg/kg/injection, schedule: Q01DX009 (ip), vehicle: saline with Tween-80): 127 % of control
- survivor count (T/C endpoint: median survival time, dose: 100.0 mg/kg/injection, schedule: Q01DX009 (ip), vehicle: saline with Tween-80): 1 of 6
- survivor count (T/C endpoint: median survival time, dose: 150.0 mg/kg/injection, schedule: Q01DX009 (ip), vehicle: saline with Tween-80): 0 of 6

Compound: CC(C)(CCC#N)C(=O)c1ccccc1
- survivor count (T/C endpoint: mean survival time, dose: 400.0 mg/kg/injection, schedule: Q04DX002 (ip), vehicle: saline with Tween-80): 0 of 3

Compound: CC(N)CC(C)N (stereo not drawn)
- survivor count [2]: 0 of 3

Compound: CC(=O)c1cccc(N=NN(C)C)c1
- T/C (T/C endpoint: mean survival time, dose: 46.0 mg/kg/injection, schedule: Q01DX009 (ip), vehicle: Klucel (hydroxypropylcellulose) (HPC)): 133 % of control
- T/C (T/C endpoint: mean survival time, dose: 69.0 mg/kg/injection, schedule: Q01DX009 (ip), vehicle: Klucel (hydroxypropylcellulose) (HPC)): 145 % of control
- survivor count (T/C endpoint: mean survival time, dose: 240.0 mg/kg/injection, schedule: Q01DX009 (ip), vehicle: Klucel (hydroxypropylcellulose) (HPC)): 5 of 6

Compound: COc1cccc(C(=O)c2ccncc2)c1OC
- survivor count (T/C endpoint: mean survival time, dose: 50.0 mg/kg/injection, schedule: Q01DX009 (ip), vehicle: water): 6 of 6
- survivor count (T/C endpoint: mean survival time, dose: 400.0 mg/kg/injection, schedule: Q01DX009 (ip), vehicle: water): 3 of 6

Compound: SC1(S)CN2CCC1CC2
- survivor count (T/C endpoint: mean survival time, dose: 100.0 mg/kg/injection, schedule: Q04DX003 (ip), vehicle: saline): 0 of 6
- survivor count (T/C endpoint: mean survival time, dose: 200.0 mg/kg/injection, schedule: Q04DX003 (ip), vehicle: saline): 0 of 6
- survivor count (T/C endpoint: mean survival time, dose: 400.0 mg/kg/injection, schedule: Q04DX003 (ip), vehicle: saline): 0 of 6
